Laboratory results taken from publication doi:10.1101/2022.01.18.476780.
The exact form of at least one protein or probe is not confirmed.

By UniProt entry, the sequences of proteins in these tests, tags left out. Residues count along the entry.
UniProt P48431, 39-118: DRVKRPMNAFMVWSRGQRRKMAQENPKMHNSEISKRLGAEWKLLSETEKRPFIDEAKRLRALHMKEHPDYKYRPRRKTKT
UniProt P48431, 39-118 N46A: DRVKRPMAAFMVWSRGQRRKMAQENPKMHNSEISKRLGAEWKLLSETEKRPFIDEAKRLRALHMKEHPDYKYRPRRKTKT
UniProt P48431, 39-118 R43A: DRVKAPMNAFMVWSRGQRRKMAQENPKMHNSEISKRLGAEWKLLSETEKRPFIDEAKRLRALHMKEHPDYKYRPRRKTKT
UniProt P48431, 39-118 Y108A: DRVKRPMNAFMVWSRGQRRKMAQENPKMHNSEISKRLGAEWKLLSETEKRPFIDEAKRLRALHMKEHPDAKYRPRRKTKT
UniProt P48431, 39-118 Y110A: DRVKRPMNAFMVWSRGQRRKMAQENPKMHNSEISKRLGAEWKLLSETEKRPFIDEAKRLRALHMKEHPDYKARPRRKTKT

Tests used:
Experiment in all cases: EMSA
Conditions in all cases: residues 39-118
Sox2 HMG DBD WT (human) = Sox2 HMG DBD WT (human) (UniProt P48431)
[1] = biological target: Sox2 HMG N10A N46A (human) (UniProt P48431)
[2] = biological target: Sox2 HMG R7A R43A (human) (UniProt P48431)
[3] = biological target: Sox2 HMG Y72A Y108A (human) (UniProt P48431)
[4] = biological target: Sox2 HMG Y74A Y110A (human) (UniProt P48431)

## TGGAGAATCCCGGTGCCGAGGCCGCTCAATTGGTCGTAGACAGCTCTAGCACCGCTTAAACGCACGTACGCTTTGTTTGGATGCTAATAACCGCCAAGGGGATTACTCCCTAGTCTCCAGGCACGTGTGGTTACGAGGCTATCGT (double strand) [DNA 2RF]
Sox2 HMG DBD WT (human)
  Kd: 3.3 nM
[1]
  Kd: 19 nM
[2]
  Kd: 4.4 nM
[3]
  Kd: 3.5 nM
[4]
  Kd: 5.6 nM
